Test results from PubChem BioAssay AID1347426 (Functional Genomics Laboratory (NCATS/FGL), 2020).
The whole screen tested about 31,000 sequences, of which about 1,400 (4.5%) were called active.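 The calls were made as follows: active = median seed-adjusted z-score above 1 or below -1; inactive = the rest.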 Some of the results follow.

assay: Novel Modifiers of Survival Motor Neuron (SMN) Protein: Gene Identification via Genome-wide siRNA Screen; conditions: HEK293T SMN2-luciferase reporter, siRNA knockdown, 72 h; actives lie on both sides;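 also: luminescence tracks full-length SMN protein made from the SMN2 reporter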
Method in brief: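 Genome-wide siRNA screen (10418 genes, 3 siRNAs each, 1 pmol per well) by reverse transfection in HEK293T cells stably carrying an SMN2-luciferase reporter; luminescence after 72 hours, normalized to negative-control siRNA, log10-transformed, MAD-scored.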

| Sequence | median seed-adjusted z-score |
| --- | --- |
| GAGCAUGAAUUGGUUUUAATT against GALNT11 | inactive: -0.259 |
| CACUUGAGGUUGAUCAAGATT against SNX16 | inactive: -0.111 |
| GCAUUAUGGUGUCCGCACATT against NR4A1 | inactive: -0.207 |
| GAUUCGAAAUAGUAUUGUATT against ZNF44 | inactive: 0.349 |
| GGUGGAAAGCGUAAAGAUATT against PDCD4 | inactive: -0.0842 |
| GGAGAAUUAUAGUCUCGCUTT against MTNR1A | inactive: 0 |
| CCUCGAGCAUAUAAUCUAATT against SETDB2 | inactive: 0.417 |
| GAUAAUGAGUGGAGAAAGATT against VEGFC | inactive: -0.41 |
| CCACCUUAACAGACCUCUATT against PPIA | inactive: 0.0169 |
| GAGAGAUUCCUUUUUCUUUTT against SLC25A26 | inactive: 0.0213 |
| GGGUGGGUUACAUAGCACATT against CLDN19 | inactive: 0 |
| GCGAUGAAAUUGUCGUGUATT against MAP3K9 | inactive: -0.498 |
| CGAGUACCUCCAUUCACUATT against PRKACB | inactive: -0.258 |
| CAAUGUCAGUAAUCAGCAATT against ICK | inactive: 0.638 |
| AGGUAGAUGUGACAGGAAATT against TRIM21 | inactive: 0.524 |
| GCAACUAAGACCUUCGUUATT against GRIA4 | inactive: 0 |
| CACUAUUCGGAAUCCACUATT against ADCYAP1R1 | inactive: 0.404 |
| CAACCUUCCUCGGACUAAUTT against SLC26A2 | active: -1.25 |
| GACCAAGCGCAAAACCAAATT against HOMEZ | inactive: -0.0614 |
| GCUAUCAGGUCAUAACCAATT against MYBPC2 | inactive: 0.18 |
| GAAUAUAUCUGUAUGAUCATT against DNAJC5G | inactive: 0.0656 |
| AAGCUGAAGUGACGAUGAATT against CBR1 | inactive: -0.6 |

| Sequence | median seed-adjusted z-score |
| --- | --- |
| CCAAGUUUUCCGUCAAAGATT against GNAT2 | inactive: 0 |
| GAACUUCAUAGUACAGCGATT against CTNNAL1 | inactive: 0.229 |
| GCCGAAUUCUUCACCUCUATT against P4HA2 | inactive: 0 |
| GGAGAGACUUUUUACAACUTT against CACNG6 | inactive: -0.0499 |
| CAAACAACCCAUGACGAAATT against IL10RB | inactive: 0.167 |
| CCAUGGACCGGGAUUAUCATT against JUB | inactive: -0.0898 |
| GGAGUGAUUAUGUAUGAAATT against STK38L | inactive: 0.079 |
| CAAUCCUCAGUUCCGUUUATT against CAPN12 | inactive: 0.155 |
| ACAGAUUGGUGAACCUAAUTT against CA13 | inactive: -0.212 |
| AAGUCUCUGUGAGACAGUATT against ARRB2 | inactive: -0.153 |
| AACGGAGUCUUUGCACUUATT against POLE4 | inactive: -0.0404 |
| CCAUGCACCUCAUCGCUAUTT against MCF2L | inactive: -0.624 |
| GAAUUGAGGAAUCAAUUGATT against MCM6 | inactive: 0.266 |
| GAAUUACUCGGUCAAUAUATT against PDGFD | inactive: 0.366 |
| GGAGAGGUCCCAUCCUAUATT against DNAJC9 | inactive: 0.0545 |
| AGGUAAUAAUAGACGUGGATT against NUPL2 | inactive: 0.134 |
| CGUGGGAACUUUUACCCGATT against ATP9A | inactive: 0.499 |
| CCGUCUAGAUGAACAACUATT against ZNF451 | inactive: 0 |
| GGACAAUAGACUUUAGAGATT against NCALD | inactive: 0 |
| GACCUGAAAUCAGAACUAATT against ANXA5 | inactive: 0.268 |
| GGGUUACCAGGUUCAUACATT against MDFI | inactive: 0.279 |
| CCGAUACAAUCGCAUGUAATT against ATF7 | inactive: 0.903 |

Quoted at random: four records from the list, in no set order.

| Sequence | median seed-adjusted z-score |
| --- | --- |
| AACGGAGUCUUUGCACUUATT against POLE4 | inactive: -0.0404 |
| AAGUCUCUGUGAGACAGUATT against ARRB2 | inactive: -0.153 |
| CGUGGGAACUUUUACCCGATT against ATP9A | inactive: 0.499 |
| GGACAAUAGACUUUAGAGATT against NCALD | inactive: 0 |

Carrying on:

| Sequence | median seed-adjusted z-score |
| --- | --- |
| CGGAGGUUUCUCAACCAUUTT against HNMT | inactive: 0.336 |
| CCCUAAAGAGUGUCGAGUUTT against ACAD11 | inactive: -0.679 |
| GAGCUACUGGGAGGGUAAATT against GNG3 | inactive: -0.186 |
| CUACUCUUCUGACACGGAATT against LDLRAD3 | inactive: -0.133 |
| GGGAGAACGUGAACAGGAATT against TRIM11 | inactive: -0.251 |
| GGAUAUUGGUCCCAUUCUATT against HSDL1 | inactive: 0.0547 |
| CCAGGUUUUGAGGAGCUUATT against FNTB | inactive: -0.0163 |
| GAGCUGGAGAGACUAGAAATT against TLK2 | inactive: 0.347 |
| GCGCUCUCAUUUUACCAAATT against SREBF2 | inactive: -0.606 |
| GGGAAAAUGAGCUAACGUATT against CD59 | inactive: 0.79 |
| CACCACCGCUCAUCACUUATT against ZNF76 | inactive: -0.0395 |
| UAUCCAUUCCUGUUCGACATT against PAQR6 | inactive: 0.632 |
| CCGUGAAUGUGCAAGACAATT against ESAM | inactive: 0.314 |
| CGGACAUCGUGGUUAAGGATT against FBXO6 | inactive: 0.0361 |
| GCUCAACAGUCAAGGCUUUTT against RS1 | inactive: -0.684 |
| CCCAGACCCUGAUACUUCATT against MEF2A | inactive: -0.0658 |
| AGAUGUGAAUGGACCCGAATT against CHP | inactive: -0.35 |
| CGCUCUAUGGGAUUUACUATT against CLPS | inactive: -0.799 |
| GCAGUAUGGAGGAUAUAGATT against SS18 | inactive: 0.34 |
| CGAACUACCUGUUGCGCAATT against GAL3ST3 | inactive: -0.54 |
| CUGUGAAUAUAUAACUCUATT against TRUB1 | inactive: 0.561 |
| GCAUGUACUUUCGCAUGAATT against PLA2G6 | inactive: -0.123 |

| Sequence | median seed-adjusted z-score |
| --- | --- |
| GGAACUACAGCGAAUGCUATT against TAF1 | inactive: -0.582 |
| GAAAGUUGCUGAAUAACCATT against PPP2R3A | inactive: 0.175 |
| GAAGGUUUCUGUGCCCUCATT against SLC4A9 | inactive: 0 |
| GGCAUAAGUUUGUCGAGAUTT against RYR2 | inactive: -0.354 |
| GGAUUACCCAGACAAGACATT against SLC35A1 | inactive: 0.00794 |
| CCCUGUGCAUGGACAUUGATT against FBN3 | inactive: 0.264 |
| CCGCUACCCUAAUAUCGAATT against SNRNP200 | inactive: 0.889 |
| CCCUCAGACUGUACGCAGATT against PGM5 | inactive: -0.0543 |
| AGAUAGUGACCGCCCGUGATT against EMID1 | inactive: 0.979 |
| GCUCAAAUGGAGAACUAAATT against GALNT8 | inactive: -0.283 |
| GCACCUCUCAAGCAGAAAATT against IL1B | inactive: -0.21 |
| CCAACUCAGCAUCCCACAATT against STK16 | inactive: 0.113 |
| ACGAAUUCGUGCUCAAGGATT against LMX1B | inactive: 0.125 |
| CAUUGAUCGUAUCGACAAATT against AGPAT5 | inactive: 0.571 |
| GGAUCUGACAGGAAAUAGATT against MBL2 | inactive: -0.252 |
| AAAUGGGUCUUAUGACAUUTT against ACAA1 | inactive: 0.384 |
| CAAGGGCCGUGUUACAUGATT against TMCO3 | inactive: -0.441 |
| GGAACUUUUUCGUCGGUAUTT against RNGTT | active: -1.55 |
| GCGUGACAAGGACCACAAATT against MMAA | inactive: -0.664 |
| UGCUAAUGGUGGAAACCCATT against TGFB1 | inactive: 0 |
| GCAGUGGUCGCAUCACAUATT against PITPNM3 | inactive: -0.0378 |
| GCCUGGUCAAGAAACUCAATT against SMAD3 | inactive: -0.715 |

| Sequence | median seed-adjusted z-score |
| --- | --- |
| CUAUCAUAGUGACAAGCGATT against GJA5 | inactive: 0.707 |
| GCUCCACAGCAUAUGCUCATT against NFIL3 | inactive: 0.4 |
| GAAAGUCCACAUUACGGAATT against ZNF35 | inactive: -0.332 |
| GAAUUGUGCCUGCUAUUAUTT against ADAM9 | inactive: 0 |
| GGACAGACGGAACAAGGGATT against AQP10 | inactive: -0.09 |
| GGUUCAAUGGAAAAGGGAATT against DLX6 | inactive: 0.0275 |
| GGUGGACAGAGGAAAAUCATT against ARL3 | inactive: 0.551 |
| ACUGGAUGUUUAUUUAUAATT against ATP6V0C | inactive: -0.389 |
| GGAAGUAUUACUUAAUUCATT against NCOA4 | inactive: -0.0638 |
| ACACGCAUAUCUUUACUUUTT against TBX21 | inactive: -0.454 |
| GCAUGAUACAGACAGCGCATT against ATP8A1 | inactive: 0 |
| GGAUCCGUAUUGAUGAUGATT against RIT1 | inactive: -0.157 |
| GGAACUCAUUAUACAAUGATT against CLCN3 | inactive: -0.0801 |
| ACAAGGACUAUUACAGAUATT against PLA2G2D | inactive: 0.361 |
| CCAAGUUCAAGAAACUCUATT against DLX3 | inactive: 0 |
| GGAUAGUGUACGUGAAUGATT against CPE | inactive: 0.139 |
| GGCCGAUUGUGAACAUGGATT against TERT | inactive: -0.698 |
| UGCUGUGCCUCGAAUGUCATT against GPR172A | inactive: 0.382 |
| GGCUUUUUAGAUUUCGAAATT against TIGD7 | inactive: -0.116 |
| GCAACUCCAUGUUUCAUAATT against PRMT1 | inactive: -0.596 |
